From PubChem BioAssay AID652054 (National Center for Advancing Translational Sciences (NCATS), 2013)
Screen size: about 360,000 compounds; about 9,100 (2.5%) were called active. The shares of active, inactive and inconclusive entries below differ from those in the screen. Rule as the data show it: active = max response below about -50%; inconclusive = no clear call, values can overlap the other calls; inactive = above that.

Protein sequences, listed by entry. Tags and fused reporters are not part of them.
UniProt P35462, whole entry, looked up: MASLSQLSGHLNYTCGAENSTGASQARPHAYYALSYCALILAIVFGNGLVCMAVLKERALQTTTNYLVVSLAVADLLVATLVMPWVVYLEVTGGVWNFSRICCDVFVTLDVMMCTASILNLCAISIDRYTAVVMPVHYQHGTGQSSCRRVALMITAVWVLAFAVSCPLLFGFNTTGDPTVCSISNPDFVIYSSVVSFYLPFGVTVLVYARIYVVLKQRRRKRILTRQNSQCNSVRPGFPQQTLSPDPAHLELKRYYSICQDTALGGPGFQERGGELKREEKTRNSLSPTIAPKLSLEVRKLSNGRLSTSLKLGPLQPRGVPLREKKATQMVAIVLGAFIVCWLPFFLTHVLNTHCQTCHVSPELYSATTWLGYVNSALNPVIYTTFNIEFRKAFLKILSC

Molecular target: D(3) dopamine receptor (Homo sapiens) (UniProt P35462)
Test: qHTS of D3 Dopamine Receptor Antagonist: qHTS
Details: D3R cells, DiscoveRx beta-arrestin luminescence, antagonist mode; stronger effect = lower value
Method in brief: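 Cells expressing the human receptor were seeded at 1500 cells/well, incubated overnight at 37 degrees C in 5% CO2, then exposed to library compounds with dopamine controls for 90 minutes at 37 degrees C before luminescent detection.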
% is scaled to controls: 0 for no effect and ±100 for the full control effect.

Row | SMILES | max response, negative = inhibition
1 | O=C(/C=C/c1ccc(Br)cc1)c1ccc(NC2=NCCCS2)cc1 | active: -55.1%
2 | COc1ccc(CNC(=O)CCn2c(=O)oc3ccccc32)cc1 | inconclusive: -41%
3 | CCN(CC)C(=O)c1[nH]cnc1C(=O)N[C@@H](C)c1ccccc1 | inconclusive: -49.8%
4 | CN1CCN(C(c2cccnc2)c2ccc3cccnc3c2O)CC1 (stereo not drawn) | inconclusive: -31.9%
5 | C#CCOCCOCCOCCNc1nc(N2CCN(C(=O)[C@H](Cc3cc4ccccc4[nH]3)n3cc([C@@H](N)Cc4ccc(O)cc4)nn3)CC2)nc(N2CCN(C(=O)[C@H](Cc3cc4ccccc4[nH]3)n3cc([C@@H](N)CC(C)C)nn3)CC2)n1 | inconclusive: -37.6%
6 | O=C(NCCCN1CCN(c2ccccc2)CC1)Nc1ccccc1C(F)(F)F | inconclusive: -48.1%
7 | COc1ccc(C2CC(c3ccccc3)=NN2C(=O)c2ccc(F)cc2)cc1 (stereo not drawn) | inconclusive: -37.7%
8 | N=c1sccn1CC(=O)Nc1ccccc1Oc1ccccc1 | inactive: -21.6%
9 | Nc1nonc1C(=O)NCCNCc1c(OCc2ccccc2F)ccc2ccccc12 | active: -55.2%
10 | NC(=O)N1CCN(CCCN2c3ccccc3Sc3cc(Cl)ccc32)CC1 | active: -69%
11 | CN(C)c1ccc(/C=C/c2cc[n+](C)cc2)cc1 | inconclusive: -35.8%
12 | O=C1c2nc3ccccn3c2C(=O)N1Cc1ccccc1 | inconclusive: -30%
13 | COc1ccc(NC(=O)/C(=C\c2cc(OC)c(OC)cc2[N+](=O)[O-])NC(=O)c2ccccc2)cc1 | inconclusive: -30.3%
14 | CCC/C(O)=C1\C(=O)CC(c2ccccc2)CC1=NCCc1c(C)[nH]c2ccc(C)cc12 (stereo not drawn) | inactive: -16.3%
15 | COc1ccc(-c2csc(NC(=O)CN3C(=O)C4CCCCC4C3=O)n2)c(OC)c1 (stereo not drawn) | inconclusive: -39.7%
16 | Cc1cc(C)cc(NS(=O)(=O)c2ccc(NC(=S)NC(=O)c3cccs3)cc2)c1 | active: -84%
17 | CCc1ccc(S(=O)(=O)NCc2ccc(N3CCN(C)CC3)cc2)cc1 | inactive: 9.38%
18 | CCN1CCN(Cc2ccc(OCc3ccccc3)cc2)CC1 | inconclusive: -41.6%
19 | C=CCn1c2ccccc2c2nnc(SCC(=O)Nc3cc(C)on3)nc21 | inconclusive: -36.6%
20 | CC1(C)N=C(N)N=C(N)N1c1cccc(CN)c1 | inactive: 3.65%
21 | Cc1c(/C=N\NC(=O)c2cc3ccccc3o2)c2ccccc2n1C | inconclusive: -44.4%
22 | COc1ccc2c(c1)C(=O)N1[C@H]3c4cc(C)ccc4OC[C@@H]3[C@H](c3ccccc3)[C@]1(C)C(=O)N2 | inconclusive: -43.2%
23 | CC(C)N(C(=O)[C@H]1C[C@H](CC(=O)NCCC2=CCCCC2)C(=O)N2CCc3c([nH]c4ccc(Cl)cc34)[C@]12C)C(C)C | inconclusive: -44.5%
24 | Cc1ccccc1NC(=O)CCN1CCc2ccccc2C1 | active: -79.1%
25 | CCN(Cc1ccccc1)C(=O)Cn1cc(S(=O)(=O)NC)c(S(=O)(=O)NC)c1 | active: -51.9%
26 | COc1ccc(C(=O)Nc2ccc(Cl)cn2)cc1Cl | inactive: 9.82%
27 | COc1ccc(NS(=O)(=O)c2cccc(NC(=O)COc3ccc(OC)cc3)c2)cc1 | inactive: 34.7%

Row | SMILES | max response, negative = inhibition
28 | Cc1cccc2cc(CN(Cc3cccs3)C3(c4nnnn4C4CCCC4)CCCC3)c(=O)[nH]c12 | inconclusive: -40.2%
29 | O=C(NCc1cccnc1)/C(=C\c1ccc(-c2ccc(Br)cc2)o1)S(=O)(=O)c1ccccc1 | active: -89.2%
30 | COCCCNC(=S)N1CCC(C(=O)c2ccc(Cl)cc2)CC1 | inconclusive: -37.2%
31 | CCOC(=O)N1CCN(S(=O)(=O)c2ccc(C(=O)N(CCN(CC)CC)c3nc4ccc(C)cc4s3)cc2)CC1 | inconclusive: -43.5%
32 | Cn1c(SCC(=O)Nc2cccc(NC(=O)c3cccs3)c2)nnc1-c1ccncc1 | inconclusive: -32.1%
33 | Cc1cccc(NS(=O)(=O)c2nnc(NC(=O)c3cccc(C)c3)s2)c1 | inconclusive: -38.1%
34 | CCCCN1CCc2c(c3ccccc3n2Cc2ccccc2)C1 | active: -93.3%
35 | O=C(NC1CCCCC1)NC1CCN(S(=O)(=O)Cc2ccccc2)CC1 | inconclusive: -45.4%
36 | COc1cc(C(=O)Nc2sc(C(=O)N3CCOCC3)c(C)c2C#N)cc(OC)c1OC | inconclusive: -37.5%
37 | O=C1COc2ccc(OCc3ccc(F)cc3)cc21 | inconclusive: -45%
38 | CCOC(=O)C1C(=O)NC(N2CCN(c3ccccc3)CC2)=NC1c1ccco1 (stereo not drawn) | inconclusive: -30.8%
39 | CCSc1nc2ccccc2n1CCC(=O)O | inconclusive: -40.9%
40 | O=C(NCCOc1ccccc1)c1ncn[nH]1 | inconclusive: -40.8%
41 | O=C(CN1C(=O)c2ccc([N+](=O)[O-])cc2C1=O)NC1CCS(=O)(=O)C1 (stereo not drawn) | inconclusive: -37.5%
42 | COc1ccccc1/C=C/C(=O)NCC(=O)N=Nc1c(O)[nH]c2ccccc12 | inconclusive: -31.6%
43 | Cc1cccc(OCC(O)CN2CCc3ccccc3C2)c1 (stereo not drawn) | active: -104%
44 | CCCn1nc([N+](=O)[O-])c(C(C#N)c2nc3ccccc3s2)c(Cl)c1=O (stereo not drawn) | inconclusive: -45.2%
45 | COC(=O)CCC(=O)Nc1ccc(C)cc1OC(=O)CCC(=O)OC | inconclusive: -46%
46 | COCCCC1CCN(C(=O)C2CCC(=O)N(Cc3ccccc3F)C2)CC1 (stereo not drawn) | inconclusive: -46%
47 | COc1cc(NCc2ccccc2)c2ncn(C(C)C)c2c1 | inactive: 0.698%
48 | CN(C)CCNC(=O)c1ccc2c(c1)N(Cc1ccc(F)cc1)CCS2 | inconclusive: -48.7%
49 | CCc1nc2c(OCCc3cccc(OC)c3)cccn2c1N(C)C(=O)c1ccc(C)cc1 | inactive: -6.67%
50 | Cc1cccc(NS(=O)(=O)c2ccc(C(=O)NCC3(N4CCCCC4)CCCCC3)cc2)c1C | inconclusive: -34.8%
51 | CC1CCCC2(C1)NC(=S)c1c(sc3c1CCCC3)N2 (stereo not drawn) | inconclusive: -42%
52 | CN(CC(=O)Nc1ccccc1Br)Cc1nc2ccccc2c(=O)[nH]1 | inconclusive: -34.8%
53 | Cc1cccc(C(=O)Nc2ccc3ccccc3c2)c1 | inconclusive: -35%
